Test results taken from publication PMC9686928, “10-mer and 9-mer WALK Peptides with Both Antibacterial and Anti-Inflammatory Activities” (Antibiotics, 2022).

System: human red blood cells
Settings: TI’ = MHC/GM

Substance | pseudo-therapeutic index (TI’)
KLLKWLKKWL-NH2 [WALK244.05] | > 10
KWLLKWLKKL-NH2 [WALK244.02] | > 10
LKKWLKWLLK-NH2 [WALK244.07] | > 10
LLKWLKKWLK-NH2 [WALK244.04] | > 10

Where no end group is shown, it is not given here.
